Changes are numbered by the printed parent chain. This is one part of the list. For some assays here: At the low end of the ranking the order means little.
Assays:
Conditions in all cases: yeast three-hybrid, YBZ-1, SC-Leu-His + 0.5 mM 3-AT, 4 days
[1] = biological target: T1, PUM1 PUF domain R6-FYS N1043F + Q1047S (UniProt Q14671)
T1 sequence: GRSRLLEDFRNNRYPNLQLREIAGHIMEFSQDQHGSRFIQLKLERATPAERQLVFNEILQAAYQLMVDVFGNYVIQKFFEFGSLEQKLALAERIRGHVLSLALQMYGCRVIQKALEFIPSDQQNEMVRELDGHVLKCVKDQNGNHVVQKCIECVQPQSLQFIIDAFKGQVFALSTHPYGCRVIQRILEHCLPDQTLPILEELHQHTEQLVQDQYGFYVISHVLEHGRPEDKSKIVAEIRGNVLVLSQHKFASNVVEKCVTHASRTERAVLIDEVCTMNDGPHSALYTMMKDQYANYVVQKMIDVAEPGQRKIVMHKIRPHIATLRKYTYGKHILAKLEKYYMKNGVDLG

[2] = biological target: T2, PUM1 PUF domain R6-GFA N1043G + Y1044F + Q1047A (UniProt Q14671)
T2 sequence: T1 sequence with F216G, Y217F, S220A

[3] = biological target: T3, PUM1 PUF domain R6-GFC N1043G + Y1044F + Q1047C (UniProt Q14671)
T3 sequence: T1 sequence with F216G, Y217F, S220C

[4] = biological target: T4, PUM1 PUF domain R6-GFE N1043G + Y1044F + Q1047E (Homo sapiens) (UniProt Q14671)
T4 sequence: T1 sequence with F216G, Y217F, S220E

[5] = biological target: T5, PUM1 PUF domain R6-GFG N1043G + Y1044F + Q1047G (UniProt Q14671)
T5 sequence: T1 sequence with F216G, Y217F, S220G

[6] = biological target: T6, PUM1 PUF domain R6-GFK N1043G + Y1044F + Q1047K (UniProt Q14671)
T6 sequence: T1 sequence with F216G, Y217F, S220K

[7] = biological target: T7, PUM1 PUF domain R6-GFM N1043G + Y1044F + Q1047M (Homo sapiens) (UniProt Q14671)
T7 sequence: T1 sequence with F216G, Y217F, S220M

[8] = biological target: T8, PUM1 PUF domain R6-GFS N1043G + Y1044F + Q1047S (UniProt Q14671)
T8 sequence: T1 sequence with F216G, Y217F

[9] = biological target: T9, PUM1 PUF domain R6-GHS N1043G + Y1044H + Q1047S (UniProt Q14671)
T9 sequence: T1 sequence with F216G, Y217H

[10] = biological target: T10, PUM1 PUF domain R6-GRQ N1043G + Y1044R (UniProt Q14671)
T10 sequence: T1 sequence with F216G, Y217R, S220Q

[11] = biological target: T11, PUM1 PUF domain R6-GWC N1043G + Y1044W + Q1047C (UniProt Q14671)
T11 sequence: T1 sequence with F216G, Y217W, S220C

[12] = biological target: T12, PUM1 PUF domain R6-GWE N1043G + Y1044W + Q1047E (UniProt Q14671)
T12 sequence: T1 sequence with F216G, Y217W, S220E

[13] = biological target: T13, PUM1 PUF domain R6-GWI N1043G + Y1044W + Q1047I (UniProt Q14671)
T13 sequence: T1 sequence with F216G, Y217W, S220I

[14] = biological target: T14, PUM1 PUF domain R6-GWM N1043G + Y1044W + Q1047M (UniProt Q14671)
T14 sequence: T1 sequence with F216G, Y217W, S220M

[15] = biological target: T15, PUM1 PUF domain R6-GWQ N1043G + Y1044W (Homo sapiens) (UniProt Q14671)
T15 sequence: T1 sequence with F216G, Y217W, S220Q

[16] = biological target: T16, PUM1 PUF domain R6-GYK N1043G + Q1047K (UniProt Q14671)
T16 sequence: T1 sequence with F216G, S220K

[17] = biological target: T17, PUM1 PUF domain R6-GYM N1043G + Q1047M (UniProt Q14671)
T17 sequence: T1 sequence with F216G, S220M

[18] = biological target: T18, PUM1 PUF domain R6-HFF N1043H + Y1044F + Q1047F (UniProt Q14671)
T18 sequence: T1 sequence with F216H, Y217F, S220F

[19] = biological target: T19, PUM1 PUF domain R6-HFV N1043H + Y1044F + Q1047V (UniProt Q14671)
T19 sequence: T1 sequence with F216H, Y217F, S220V

[20] = biological target: T20, PUM1 PUF domain R6-IFG N1043I + Y1044F + Q1047G (UniProt Q14671)
T20 sequence: T1 sequence with F216I, Y217F, S220G

[21] = biological target: T21, PUM1 PUF domain R6-IFL N1043I + Y1044F + Q1047L (UniProt Q14671)
T21 sequence: T1 sequence with F216I, Y217F, S220L

[22] = biological target: T22, PUM1 PUF domain R6-IWG N1043I + Y1044W + Q1047G (UniProt Q14671)
T22 sequence: T1 sequence with F216I, Y217W, S220G

[23] = biological target: T23, PUM1 PUF domain R6-IWL N1043I + Y1044W + Q1047L (UniProt Q14671)
T23 sequence: T1 sequence with F216I, Y217W, S220L

[24] = biological target: T24, PUM1 PUF domain R6-IWR N1043I + Y1044W + Q1047R (Homo sapiens) (UniProt Q14671)
T24 sequence: T1 sequence with F216I, Y217W, S220R

[25] = biological target: T25, PUM1 PUF domain R6-IWS N1043I + Y1044W + Q1047S (UniProt Q14671)
T25 sequence: T1 sequence with F216I, Y217W

[26] = biological target: T26, PUM1 PUF domain R6-IYE N1043I + Q1047E (UniProt Q14671)
T26 sequence: T1 sequence with F216I, S220E

[27] = biological target: T27, PUM1 PUF domain R6-IYL N1043I + Q1047L (UniProt Q14671)
T27 sequence: T1 sequence with F216I, S220L

[28] = biological target: T28, PUM1 PUF domain R6-IYS N1043I + Q1047S (UniProt Q14671)
T28 sequence: T1 sequence with F216I

[29] = biological target: T29, PUM1 PUF domain R6-LFA N1043L + Y1044F + Q1047A (UniProt Q14671)
T29 sequence: T1 sequence with F216L, Y217F, S220A

[30] = biological target: T30, PUM1 PUF domain R6-LFC N1043L + Y1044F + Q1047C (UniProt Q14671)
T30 sequence: T1 sequence with F216L, Y217F, S220C

[31] = biological target: T31, PUM1 PUF domain R6-LFG N1043L + Y1044F + Q1047G (Homo sapiens) (UniProt Q14671)
T31 sequence: T1 sequence with F216L, Y217F, S220G

[32] = biological target: T32, PUM1 PUF domain R6-LFS N1043L + Y1044F + Q1047S (UniProt Q14671)
T32 sequence: T1 sequence with F216L, Y217F

[33] = biological target: T33, PUM1 PUF domain R6-LFT N1043L + Y1044F + Q1047T (UniProt Q14671)
T33 sequence: T1 sequence with F216L, Y217F, S220T

[34] = biological target: T34, PUM1 PUF domain R6-LFV N1043L + Y1044F + Q1047V (UniProt Q14671)
T34 sequence: T1 sequence with F216L, Y217F, S220V

[35] = biological target: T35, PUM1 PUF domain R6-LHS N1043L + Y1044H + Q1047S (UniProt Q14671)
T35 sequence: T1 sequence with F216L, Y217H

[36] = biological target: T36, PUM1 PUF domain R6-LWG N1043L + Y1044W + Q1047G (UniProt Q14671)
T36 sequence: T1 sequence with F216L, Y217W, S220G

[37] = biological target: T37, PUM1 PUF domain R6-LWL N1043L + Y1044W + Q1047L (UniProt Q14671)
T37 sequence: T1 sequence with F216L, Y217W, S220L

[38] = biological target: T38, PUM1 PUF domain R6-LWR N1043L + Y1044W + Q1047R (Homo sapiens) (UniProt Q14671)
T38 sequence: T1 sequence with F216L, Y217W, S220R

[39] = biological target: T39, PUM1 PUF domain R6-LWS N1043L + Y1044W + Q1047S (UniProt Q14671)
T39 sequence: T1 sequence with F216L, Y217W

[40] = biological target: T40, PUM1 PUF domain R6-LWV N1043L + Y1044W + Q1047V (UniProt Q14671)
T40 sequence: T1 sequence with F216L, Y217W, S220V

[41] = biological target: T41, PUM1 PUF domain R6-LYA N1043L + Q1047A (UniProt Q14671)
T41 sequence: T1 sequence with F216L, S220A

[42] = biological target: T42, PUM1 PUF domain R6-LYC N1043L + Q1047C (UniProt Q14671)
T42 sequence: T1 sequence with F216L, S220C

[43] = biological target: T43, PUM1 PUF domain R6-LYG N1043L + Q1047G (UniProt Q14671)
T43 sequence: T1 sequence with F216L, S220G

[44] = biological target: T44, PUM1 PUF domain R6-LYL N1043L + Q1047L (UniProt Q14671)
T44 sequence: T1 sequence with F216L, S220L

GGCUAGAACUAGUGGAUCCCCCGGCGCCCGGCGGCUCGAGCCCGGGUAAGUGCAAAUAGUCUGCAUGCCGCCGGGCGCCAUGCCUGCAGGUCGACUCUAGAAAACAUG
binding signal (log2 enrichment (interaction score)) [1]: < -7.64
binding signal (log2 enrichment (interaction score)) [2]: < -8.26
binding signal (log2 enrichment (interaction score)) [3]: -6.72
binding signal (log2 enrichment (interaction score)) [4]: -5.49
binding signal (log2 enrichment (interaction score)) [5]: -5.96
binding signal (log2 enrichment (interaction score)) [6]: < -7.12
binding signal (log2 enrichment (interaction score)) [7]: -3.09
binding signal (log2 enrichment (interaction score)) [8]: -5.71
binding signal (log2 enrichment (interaction score)) [9]: < -7.24
binding signal (log2 enrichment (interaction score)) [10]: < -7.68
binding signal (log2 enrichment (interaction score)) [11]: < -7.38
binding signal (log2 enrichment (interaction score)) [12]: -6.2
binding signal (log2 enrichment (interaction score)) [13]: < -6.14
binding signal (log2 enrichment (interaction score)) [14]: < -7.79
binding signal (log2 enrichment (interaction score)) [15]: -3.75
binding signal (log2 enrichment (interaction score)) [16]: < -6.63
binding signal (log2 enrichment (interaction score)) [17]: < -7.88
binding signal (log2 enrichment (interaction score)) [18]: < -6.68
binding signal (log2 enrichment (interaction score)) [19]: -5.76
binding signal (log2 enrichment (interaction score)) [20]: < -7.32
binding signal (log2 enrichment (interaction score)) [21]: < -7.16
binding signal (log2 enrichment (interaction score)) [22]: < -6.47
binding signal (log2 enrichment (interaction score)) [23]: < -6.73
binding signal (log2 enrichment (interaction score)) [24]: -1
binding signal (log2 enrichment (interaction score)) [25]: < -7.06
binding signal (log2 enrichment (interaction score)) [26]: < -6.55
binding signal (log2 enrichment (interaction score)) [27]: < -7.92
binding signal (log2 enrichment (interaction score)) [28]: < -7.51
binding signal (log2 enrichment (interaction score)) [29]: < -8.68
binding signal (log2 enrichment (interaction score)) [30]: < -7.31
binding signal (log2 enrichment (interaction score)) [31]: -2.22
binding signal (log2 enrichment (interaction score)) [32]: < -8.6
binding signal (log2 enrichment (interaction score)) [33]: < -7.13
binding signal (log2 enrichment (interaction score)) [34]: < -8.3
binding signal (log2 enrichment (interaction score)) [35]: < -7.63
binding signal (log2 enrichment (interaction score)) [36]: < -8.11
binding signal (log2 enrichment (interaction score)) [37]: < -6.95
binding signal (log2 enrichment (interaction score)) [38]: -3.31
binding signal (log2 enrichment (interaction score)) [39]: < -8.01
binding signal (log2 enrichment (interaction score)) [40]: < -7.62
binding signal (log2 enrichment (interaction score)) [41]: < -7.66
binding signal (log2 enrichment (interaction score)) [42]: < -7.41
binding signal (log2 enrichment (interaction score)) [43]: < -7.8
binding signal (log2 enrichment (interaction score)) [44]: -6.6

Source: PMC8384837
